# At least one compound was matched to its structure with a doubt left.
# Test system: MSCs
# Test: Priming of MSCs to a stem cell phenotype (Protocols D and E)
# Type: cell-based
# Settings: incubation for 1-6 days (Protocol E)
# Procedure: These incubations were also performed after first transfecting the MSCs with the modified Nanog mRNA.
smiles,measurement,value
CO[C@H]1C[C@@H]2CC[C@@H](C)[C@@](O)(O2)C(=O)C(=O)N2CCCC[C@H]2C(=O)O[C@H]([C@H](C)C[C@@H]2CC[C@@H](O)[C@H](OC)C2)CC(=O)[C@H](C)/C=C(\C)[C@@H](O)[C@@H](OC)C(=O)[C@H](C)C[C@H](C)/C=C/C=C/C=C/1C [rapamycin],priming of MSCs,primed the MSCs to a degree
